{"source": "PubChem BioAssay AID504467", "about": "(National Center for Advancing Translational Sciences (NCATS), 2011)", "note": "In all, about 330,000 compounds went through this assay and about 7,700 (2.3%) were called active. The shares of active, inactive and inconclusive entries below differ from those in the screen. Calls follow the shape of the dose curve; as a rule, active = well fitted inhibition curve with a large enough effect; inconclusive = small, poorly fitted or top-dose-only effect, or effect the other way; inactive = flat fitted curve, though single readings scatter. A potency beside an inconclusive call is a rough fit, not a confirmed value. Potency is read from the fitted curve at half-maximal effect.", "data": [{"experiment": "qHTS screen for small molecules that inhibit ELG1-dependent DNA repair in human embryonic kidney (HEK293T) cells expressing luciferase-tagged ELG1; also: nearly all actives have a fitted effect of over 55% in size", "details": "HEK293T ELG1-luciferase reporter, luminescence, 16 h, DNA damage induced by 5-fluorouridine; series mostly up to 46.1 µM", "outline": "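Cells (2,000 per well) received 5-fluorouridine plus test compound or DMSO and were incubated 16 hr at 37 °C, 5% CO2. Luciferase activity was read by luminescence 30 min after ONE-Glo addition; signal suppression marked inhibition of damage-induced ELG1 function.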", "values": [{"smiles": "CC(C)(C)c1ccc(C(=O)NNc2cc(Cl)cc(Cl)c2)cc1", "Potency": "inactive"}, {"smiles": "COc1ccccc1CNC(=O)C(=O)NCC1CCCO1", "note": "(stereo not given)", "Potency": "inconclusive: 14.6 µM [activator, partial curve]"}, {"smiles": "O=C(CN1CCN(C(=O)N2CCOCC2)CC1)Nc1cc(Cl)ccc1Cl", "Potency": "inactive"}, {"smiles": "CC12CCC(C(=O)NCc3ccccn3)(OC1=O)C2(C)C", "note": "(stereo not given)", "Potency": "inconclusive: 0.92 µM [activator, partial curve, poor fit]"}, {"smiles": "COc1ccc(/C=C/C(=O)OCC(=O)c2ccc(S(=O)(=O)N3CCCCC3)cc2)cc1OC", "Potency": "inconclusive: 6.51 µM [activator, partial curve, poor fit]"}, {"smiles": "Cc1ccc(C(C)C)c(OC/C(O)=C(\\C#N)c2nc3ccccc3[nH]2)c1", "Potency": "active: 16.4 µM"}, {"smiles": "COc1ccc(OC)c(N(CC(=O)NC2CCCCCC2)S(=O)(=O)c2ccc(C)cc2)c1", "Potency": "inactive"}, {"smiles": "CC(=O)Nc1ccc(S(=O)(=O)NC2=C(N3CCN(C)CC3)C(=O)c3ccccc3C2=O)cc1", "Potency": "active: 18.3 µM"}, {"smiles": "O=c1c2ccccc2oc2cc(NCCCn3ccnc3)ccc12", "Potency": "inconclusive: 3.26 µM [activator, partial curve]"}, {"smiles": "Cc1cc(C(=O)N/N=C/c2cccc(Cl)c2Cl)no1", "Potency": "inconclusive: 20.6 µM [activator, single point]"}, {"smiles": "COc1ccc(C2=NN(c3ccccc3)C(c3cn(CCC(=O)O)nc3-c3ccccc3)C2)cc1", "note": "(stereo not given)", "Potency": "inconclusive: 18.3 µM [activator, single point]"}, {"smiles": "COc1ccc(C(C(=O)Nc2ccc(C(C)C)cc2)N(Cc2ccco2)C(=O)CC2NC(=O)NC2=O)cc1", "note": "(stereo not given)", "Potency": "inconclusive: 29.1 µM [inhibitor, single point]"}, {"smiles": "O=C(c1cc(-c2ccccc2)on1)N1CCN(Cc2ccc3c(c2)OCO3)CC1", "Potency": "inactive"}, {"smiles": "Cc1onc(-c2ccccc2Cl)c1C(=O)N(C)C1CCCCC1", "Potency": "inconclusive: 18.4 µM [inhibitor, single point]"}, {"smiles": "N#Cc1cc(N)c(Nc2ccccc2)cc1C#N", "Potency": "inconclusive: 32.6 µM [inhibitor, single point]"}, {"smiles": "Cc1nn(C(=O)c2ccc3c(c2)OCO3)c(N)c1-c1ccccc1", "Potency": "inconclusive: 18.4 µM [activator, partial curve]"}, {"smiles": "CCOC(=O)c1cc(-c2csc(-c3ccc(C(C)(C)C)cc3)n2)on1", "Potency": "inconclusive: 18.3 µM [activator, partial curve]"}, {"smiles": "CCOc1nc(NCCN2CCOCC2)nc(Nc2ccc([N+](=O)[O-])cc2)n1", "Potency": "inconclusive: 11.6 µM [inhibitor, partial curve]"}, {"smiles": "CC1Cc2cc(-c3csc(NC(=O)Cc4ccccc4)n3)ccc2N1S(C)(=O)=O", "note": "(stereo not given)", "Potency": "active: 7.31 µM"}, {"smiles": "CCOC(=O)N1CCN(C(=O)c2cc(COc3cccc(C(F)(F)F)c3)on2)CC1", "Potency": "inconclusive: 18.3 µM [activator, partial curve]"}, {"smiles": "CC(=Nc1ccccc1O)c1sc2ccccc2c1O", "Potency": "inconclusive: 14.6 µM [activator, partial curve]"}, {"smiles": "CCn1cc(C(=O)NCCc2ccccc2)c(=O)c2cc(S(=O)(=O)N3CCCC3)ccc21", "Potency": "inconclusive: 18.3 µM [inhibitor, single point]"}, {"smiles": "Cc1nnc(NC(=O)/C=C/c2ccco2)s1", "Potency": "inconclusive: 20.6 µM [activator, single point]"}, {"smiles": "Cc1nn(C)c(C)c1NC(=O)CSc1nc(C2CC2)nc2c1cnn2-c1ccccc1", "Potency": "inconclusive: 2.59 µM [inhibitor, partial curve, poor fit]"}, {"smiles": "Brc1ccc(-c2nc(-c3ccncc3)no2)o1", "Potency": "inconclusive: 14.1 µM [activator, partial curve, poor fit]"}, {"smiles": "COc1ccc(-c2csc(N=C(N)N)n2)cc1", "Potency": "inconclusive: 14.6 µM [activator, partial curve]"}, {"smiles": "Oc1ccccc1C1CC(c2cccs2)=NC(c2cccc(Br)c2)N1", "note": "(stereo not given)", "Potency": "inconclusive: 25.9 µM [activator, single point]"}, {"smiles": "O=S(=O)(Cc1cc(Cl)nc(-c2ccccc2)n1)c1ccccc1", "Potency": "inactive"}, {"smiles": "O=C(CN1CCCCCC1)N/N=C/c1ccc2ccccc2c1", "Potency": "inconclusive: 23.1 µM [activator, partial curve, poor fit]"}, {"smiles": "CCN(CC)C(=O)CSc1nc2cc3c(cc2c(=O)n1CCCC(=O)NCc1ccc(OC)cc1)OCO3", "Potency": "inconclusive: 29.1 µM [inhibitor, single point]"}, {"smiles": "CC(=O)Oc1ccc(C(=O)Cc2ccccn2)c(O)c1", "Potency": "inconclusive: 16.4 µM [activator, partial curve, poor fit]"}, {"smiles": "CC(=O)N1CCCc2cc(S(=O)(=O)N3CCCC3)ccc21", "Potency": "inconclusive: 18.3 µM [activator, partial curve]"}, {"smiles": "CCc1ccc(NC(=O)Cn2cnc3sc(C)c(S(=O)(=O)N4CCOCC4)c3c2=O)cc1", "Potency": "inactive"}, {"smiles": "COc1ccc(-c2ccc(-c3cc(=O)oc4cc(OC)c(OC)c(OC)c34)cc2)cc1OC", "Potency": "active: 10.3 µM"}, {"smiles": "COC(=O)c1cc(OC)c(OC)cc1NC(=O)CSCc1c(C)noc1C", "Potency": "inconclusive: 25.9 µM [inhibitor, single point]"}, {"smiles": "CCOc1ccccc1NC(=S)N(CCCN1CCOCC1)Cc1cn(C)c2ccccc12", "Potency": "inactive"}, {"smiles": "O=[N+]([O-])CC(=Nc1ccc(Cl)cc1)N/N=C\\c1oc(O)c2ccccc12", "Potency": "inconclusive: 16.4 µM [activator, single point]"}, {"smiles": "CCOC(=O)NC(NC(=O)OCC)C(=O)c1ccccc1", "Potency": "inactive"}, {"smiles": "Cc1cc(Oc2ccc(=O)n(C)n2)nc(SCC(N)=O)n1", "Potency": "inconclusive: 32.6 µM [inhibitor, partial curve, poor fit]"}, {"smiles": "COc1ccccc1/C=C(/CC(=O)NCc1ccc2c(c1)OCO2)c1nc2ccccc2s1", "Potency": "inconclusive: 29.1 µM [inhibitor, single point]"}, {"smiles": "Cc1ccc(NC(=S)NCCCN2CCOCC2)cc1C", "Potency": "inactive"}, {"smiles": "O=C1CCCC/C1=C\\Nc1ccc(S(=O)(=O)Nc2cnc3ccccc3n2)cc1", "Potency": "inactive"}, {"smiles": "CN(C)C(=O)C1Cc2ccccc2CN1S(=O)(=O)c1ccc(F)cc1", "note": "(stereo not given)", "Potency": "inactive"}, {"smiles": "c1ccc2c(c1)nc(Nc1ccc3c(c1)OCO3)c1nnnn12", "Potency": "inconclusive: 1.84 µM [activator, partial curve]"}, {"smiles": "O=C(CCC1CCCN(C(=O)CCCc2ccccc2)C1)N1CCN(c2ccccn2)CC1", "note": "(stereo not given)", "Potency": "inconclusive: 20.6 µM [inhibitor, single point]"}, {"smiles": "O=C(COn1nnc2ccccc21)NCC1CCCCC1", "Potency": "inconclusive: 18.4 µM [activator, partial curve]"}, {"smiles": "COc1ccc(CCN(Cc2cc3cc(C)ccc3[nH]c2=O)C(=O)N2CCCC2)cc1OC", "Potency": "inconclusive: 16.4 µM [inhibitor, partial curve]"}, {"smiles": "O=C1NC2(CCN(Cc3ccccc3)CC2)Oc2ccccc21", "Potency": "inconclusive: 29.1 µM [inhibitor, single point]"}, {"smiles": "O=S(=O)(NCCN1CCCC1)c1ccc(Cl)cc1", "Potency": "inactive"}, {"smiles": "COc1ccc(-c2cc(C(=O)N3CCCC3)no2)cc1OC", "Potency": "inconclusive: 13 µM [activator, partial curve]"}, {"smiles": "Cc1ccccc1NC(=O)c1c(C)nc(SCC(=O)OCc2ccccc2)c(C#N)c1-c1ccc(F)cc1", "Potency": "inconclusive: 23.1 µM [inhibitor, single point]"}, {"smiles": "CCn1cc(-c2cc(C(=O)O)c3ccccc3n2)c(C)n1", "Potency": "inactive"}, {"smiles": "COc1ccc(OCCNS(=O)(=O)c2ccc3oc4ccccc4c3c2)cc1", "Potency": "inactive"}, {"smiles": "COc1ccc(OCc2cc(C(=O)N(C)Cc3cc(C)no3)no2)c(Cl)c1", "Potency": "inconclusive: 20.6 µM [activator, partial curve]"}, {"smiles": "Nc1c(C(=O)c2ccccc2)sc2nsc(SCCN3CCCC3)c12", "Potency": "inconclusive: 29.1 µM [inhibitor, single point]"}, {"smiles": "CSc1ccccc1C(=O)N1CCCC(CNC(=O)c2ccc(F)cc2)C1", "note": "(stereo not given)", "Potency": "inactive"}, {"smiles": "CCCCn1c(-c2cccnc2)nc2cc3[nH]c(=O)c(C(C)C)nc3cc21", "Potency": "inactive"}, {"smiles": "Cc1ccc(C(=O)Nc2cccc(-c3cnc4ccccc4n3)c2)cc1", "Potency": "inactive"}, {"smiles": "Cc1ccc2nc(-c3ccc(NC(=O)CCS(=O)(=O)c4ccccc4)cc3)sc2c1", "Potency": "inconclusive: 0.366 µM [activator, full curve]"}, {"smiles": "CCO[C@@H]1OC(C(=O)N2CCN(Cc3ccccc3)CC2)=C[C@H](C)[C@H]1CCCO", "Potency": "inactive"}, {"smiles": "CCSc1nnc(NC(=O)C2Cc3ccccc3CN2S(=O)(=O)CC)s1", "note": "(stereo not given)", "Potency": "inconclusive: 18.4 µM [activator, single point]"}, {"smiles": "Cc1cc(C)nc(/N=c2/ssnc2Cl)c1", "Potency": "inconclusive: 23.1 µM [inhibitor, single point]"}, {"smiles": "Cc1cc(N2CCOCC2)nc2ccc(NC(=O)CCC(=O)N3CCC(C)CC3)cc12", "Potency": "inconclusive: 13 µM [activator, partial curve]"}, {"smiles": "CC(=O)c1ccc(N2CCN(C(=S)Nc3ccc(Cl)c(Cl)c3)CC2)cc1", "Potency": "inactive"}, {"smiles": "Clc1ccc(Oc2cnc3ccccc3n2)cc1", "Potency": "inconclusive: 23.1 µM [inhibitor, single point]"}, {"smiles": "COc1cc2c(cc1OC)CN(c1nc(CN3CCOCC3)nc3sc4c(c13)CCCC4)CC2", "Potency": "active: 2.91 µM"}, {"smiles": "CC(C)C(=O)Nc1ccc(Sc2ccc(F)cc2)cc1", "Potency": "inactive"}, {"smiles": "N#Cc1cccc(NCC(=O)Nc2ccc3c(c2)OCCO3)c1", "Potency": "inconclusive: 5.8 µM [activator, partial curve]"}, {"smiles": "OCCN1CCN(c2nc(-c3ccccc3)c3cc(Br)ccc3n2)CC1", "Potency": "inconclusive: 29.1 µM [inhibitor, single point]"}, {"smiles": "CCOC(=O)Cn1cc(/C=N/NC(=O)c2cc3ccccc3o2)c2ccccc21", "Potency": "inconclusive: 25.9 µM [inhibitor, partial curve, poor fit]"}]}]}
